From the supplement of paper PMC6411743
± gives the standard deviation of the averaged measurements. The list shows a part of the results.

Amino acid sequences for entries named in this document (tags omitted). A change or cut given only in a name is not applied to a line headed by its entry.
UniProt O14964, whole entry: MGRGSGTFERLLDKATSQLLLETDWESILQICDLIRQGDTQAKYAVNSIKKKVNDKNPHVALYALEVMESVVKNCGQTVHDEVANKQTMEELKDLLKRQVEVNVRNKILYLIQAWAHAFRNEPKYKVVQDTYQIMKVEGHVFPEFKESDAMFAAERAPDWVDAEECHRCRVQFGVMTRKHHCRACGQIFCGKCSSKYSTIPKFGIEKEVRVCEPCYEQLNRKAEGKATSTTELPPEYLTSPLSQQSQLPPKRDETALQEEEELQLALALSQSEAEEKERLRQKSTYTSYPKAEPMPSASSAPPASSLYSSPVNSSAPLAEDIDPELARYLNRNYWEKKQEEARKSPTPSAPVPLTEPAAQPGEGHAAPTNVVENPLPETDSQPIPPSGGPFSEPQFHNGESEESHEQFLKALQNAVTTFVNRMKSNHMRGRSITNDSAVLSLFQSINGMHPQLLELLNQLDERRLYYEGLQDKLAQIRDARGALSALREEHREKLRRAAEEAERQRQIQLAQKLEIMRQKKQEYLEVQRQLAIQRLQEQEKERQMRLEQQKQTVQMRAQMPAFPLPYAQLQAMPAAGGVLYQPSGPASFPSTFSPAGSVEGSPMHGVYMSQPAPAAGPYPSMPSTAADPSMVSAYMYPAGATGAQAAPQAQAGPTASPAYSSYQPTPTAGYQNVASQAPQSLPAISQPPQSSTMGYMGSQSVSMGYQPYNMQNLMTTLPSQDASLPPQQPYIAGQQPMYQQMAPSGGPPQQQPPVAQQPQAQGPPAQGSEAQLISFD
UniProt O00567: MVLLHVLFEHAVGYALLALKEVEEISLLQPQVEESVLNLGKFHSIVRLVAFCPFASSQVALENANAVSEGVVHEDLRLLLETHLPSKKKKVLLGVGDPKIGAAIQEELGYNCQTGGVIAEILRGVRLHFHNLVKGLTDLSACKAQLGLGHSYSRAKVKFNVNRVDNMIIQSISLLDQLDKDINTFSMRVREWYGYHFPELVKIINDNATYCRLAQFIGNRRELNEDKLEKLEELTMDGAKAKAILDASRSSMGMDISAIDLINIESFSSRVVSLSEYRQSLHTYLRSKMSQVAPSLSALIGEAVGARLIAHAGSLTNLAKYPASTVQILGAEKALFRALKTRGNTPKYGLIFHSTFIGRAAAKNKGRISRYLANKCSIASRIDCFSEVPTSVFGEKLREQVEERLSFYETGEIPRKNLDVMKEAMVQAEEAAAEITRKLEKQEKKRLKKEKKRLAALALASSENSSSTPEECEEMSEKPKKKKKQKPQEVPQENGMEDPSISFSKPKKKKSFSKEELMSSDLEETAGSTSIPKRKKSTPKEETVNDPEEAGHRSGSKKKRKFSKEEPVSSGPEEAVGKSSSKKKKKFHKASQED
UniProt P35269, whole entry: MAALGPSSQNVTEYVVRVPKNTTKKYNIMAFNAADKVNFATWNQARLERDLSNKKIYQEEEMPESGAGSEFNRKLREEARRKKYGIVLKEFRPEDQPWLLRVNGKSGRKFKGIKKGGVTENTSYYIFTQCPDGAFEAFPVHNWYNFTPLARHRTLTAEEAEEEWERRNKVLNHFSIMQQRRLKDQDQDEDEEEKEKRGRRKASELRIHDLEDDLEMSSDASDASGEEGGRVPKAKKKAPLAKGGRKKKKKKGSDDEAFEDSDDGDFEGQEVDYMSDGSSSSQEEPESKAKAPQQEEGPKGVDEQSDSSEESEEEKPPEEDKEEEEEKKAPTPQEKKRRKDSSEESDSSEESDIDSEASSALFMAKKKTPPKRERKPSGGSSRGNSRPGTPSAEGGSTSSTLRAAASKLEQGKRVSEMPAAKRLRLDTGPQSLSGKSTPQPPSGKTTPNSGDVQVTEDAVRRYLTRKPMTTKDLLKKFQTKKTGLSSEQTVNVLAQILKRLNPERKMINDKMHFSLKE
UniProt O15234, whole entry: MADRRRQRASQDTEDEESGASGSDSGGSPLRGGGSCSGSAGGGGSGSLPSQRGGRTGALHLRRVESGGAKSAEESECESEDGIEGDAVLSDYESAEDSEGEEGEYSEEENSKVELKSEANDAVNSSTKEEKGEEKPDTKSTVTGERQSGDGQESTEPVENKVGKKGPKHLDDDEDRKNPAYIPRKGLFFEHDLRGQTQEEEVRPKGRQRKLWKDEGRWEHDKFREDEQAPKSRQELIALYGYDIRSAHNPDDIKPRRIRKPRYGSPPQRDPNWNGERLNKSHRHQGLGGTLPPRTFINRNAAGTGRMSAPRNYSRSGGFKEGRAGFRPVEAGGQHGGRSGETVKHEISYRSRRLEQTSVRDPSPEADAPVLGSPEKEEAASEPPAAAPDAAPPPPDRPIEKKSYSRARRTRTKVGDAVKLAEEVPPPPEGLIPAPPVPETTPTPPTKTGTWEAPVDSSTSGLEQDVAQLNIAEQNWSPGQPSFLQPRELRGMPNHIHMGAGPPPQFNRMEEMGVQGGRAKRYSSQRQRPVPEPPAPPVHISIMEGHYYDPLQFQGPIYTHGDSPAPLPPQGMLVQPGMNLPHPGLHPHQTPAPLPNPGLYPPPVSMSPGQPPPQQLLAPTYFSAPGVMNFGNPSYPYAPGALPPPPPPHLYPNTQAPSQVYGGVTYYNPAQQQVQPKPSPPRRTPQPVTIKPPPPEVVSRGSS
UniProt O00291: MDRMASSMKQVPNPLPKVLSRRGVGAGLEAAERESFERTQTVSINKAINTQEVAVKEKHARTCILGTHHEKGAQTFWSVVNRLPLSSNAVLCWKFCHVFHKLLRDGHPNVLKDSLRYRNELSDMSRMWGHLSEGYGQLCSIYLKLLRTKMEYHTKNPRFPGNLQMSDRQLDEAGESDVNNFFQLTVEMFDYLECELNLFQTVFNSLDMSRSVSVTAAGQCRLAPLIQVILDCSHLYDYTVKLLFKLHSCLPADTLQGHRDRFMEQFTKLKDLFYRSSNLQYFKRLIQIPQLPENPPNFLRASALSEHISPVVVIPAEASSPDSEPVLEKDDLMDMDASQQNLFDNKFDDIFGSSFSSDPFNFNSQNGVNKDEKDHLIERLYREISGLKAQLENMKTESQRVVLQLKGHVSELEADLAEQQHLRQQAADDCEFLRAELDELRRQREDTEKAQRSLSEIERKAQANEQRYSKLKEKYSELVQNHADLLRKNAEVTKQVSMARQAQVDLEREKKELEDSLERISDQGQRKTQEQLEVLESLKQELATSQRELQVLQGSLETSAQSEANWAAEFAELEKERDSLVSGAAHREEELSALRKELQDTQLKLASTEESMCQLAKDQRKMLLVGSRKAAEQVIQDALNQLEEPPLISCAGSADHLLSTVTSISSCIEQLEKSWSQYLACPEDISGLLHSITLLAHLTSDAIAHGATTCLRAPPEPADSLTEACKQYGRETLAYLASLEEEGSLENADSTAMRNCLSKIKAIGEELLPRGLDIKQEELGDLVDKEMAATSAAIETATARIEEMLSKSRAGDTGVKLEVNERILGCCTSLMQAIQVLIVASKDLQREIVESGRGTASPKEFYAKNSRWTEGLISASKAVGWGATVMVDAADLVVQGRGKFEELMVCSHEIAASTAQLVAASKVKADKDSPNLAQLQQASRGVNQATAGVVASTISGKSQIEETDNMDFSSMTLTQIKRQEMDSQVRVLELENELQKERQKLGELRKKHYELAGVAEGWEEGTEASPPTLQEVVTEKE
UniProt O00487, whole entry: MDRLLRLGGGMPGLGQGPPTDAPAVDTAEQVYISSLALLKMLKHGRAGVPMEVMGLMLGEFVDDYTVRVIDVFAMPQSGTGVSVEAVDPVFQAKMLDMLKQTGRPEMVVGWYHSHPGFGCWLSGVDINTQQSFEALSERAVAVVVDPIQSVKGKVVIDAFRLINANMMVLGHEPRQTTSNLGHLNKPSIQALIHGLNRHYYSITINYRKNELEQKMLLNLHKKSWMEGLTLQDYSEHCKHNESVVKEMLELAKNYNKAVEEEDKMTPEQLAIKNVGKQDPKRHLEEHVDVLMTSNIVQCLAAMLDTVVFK
UniProt Q96CP6, whole entry: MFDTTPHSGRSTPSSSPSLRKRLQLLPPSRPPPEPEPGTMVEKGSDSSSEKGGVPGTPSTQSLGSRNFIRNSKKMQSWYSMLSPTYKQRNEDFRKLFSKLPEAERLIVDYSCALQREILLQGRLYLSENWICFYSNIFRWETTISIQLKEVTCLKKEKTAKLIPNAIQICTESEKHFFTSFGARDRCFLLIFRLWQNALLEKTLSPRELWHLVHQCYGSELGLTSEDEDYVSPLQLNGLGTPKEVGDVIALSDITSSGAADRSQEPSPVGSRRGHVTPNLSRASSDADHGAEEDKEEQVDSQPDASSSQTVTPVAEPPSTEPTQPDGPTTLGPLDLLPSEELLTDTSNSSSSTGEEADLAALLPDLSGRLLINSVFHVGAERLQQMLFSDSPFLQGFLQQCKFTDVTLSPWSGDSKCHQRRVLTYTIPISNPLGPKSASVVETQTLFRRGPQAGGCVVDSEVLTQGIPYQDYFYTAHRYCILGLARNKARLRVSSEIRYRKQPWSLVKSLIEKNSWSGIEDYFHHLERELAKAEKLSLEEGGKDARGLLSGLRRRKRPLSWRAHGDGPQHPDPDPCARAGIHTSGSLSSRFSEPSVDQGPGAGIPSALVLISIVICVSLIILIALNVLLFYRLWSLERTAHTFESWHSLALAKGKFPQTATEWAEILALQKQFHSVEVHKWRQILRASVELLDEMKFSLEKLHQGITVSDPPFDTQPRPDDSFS
UniProt O43676, whole entry: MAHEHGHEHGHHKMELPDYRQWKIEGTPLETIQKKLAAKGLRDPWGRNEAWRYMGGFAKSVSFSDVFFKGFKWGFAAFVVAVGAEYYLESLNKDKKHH
UniProt O60701: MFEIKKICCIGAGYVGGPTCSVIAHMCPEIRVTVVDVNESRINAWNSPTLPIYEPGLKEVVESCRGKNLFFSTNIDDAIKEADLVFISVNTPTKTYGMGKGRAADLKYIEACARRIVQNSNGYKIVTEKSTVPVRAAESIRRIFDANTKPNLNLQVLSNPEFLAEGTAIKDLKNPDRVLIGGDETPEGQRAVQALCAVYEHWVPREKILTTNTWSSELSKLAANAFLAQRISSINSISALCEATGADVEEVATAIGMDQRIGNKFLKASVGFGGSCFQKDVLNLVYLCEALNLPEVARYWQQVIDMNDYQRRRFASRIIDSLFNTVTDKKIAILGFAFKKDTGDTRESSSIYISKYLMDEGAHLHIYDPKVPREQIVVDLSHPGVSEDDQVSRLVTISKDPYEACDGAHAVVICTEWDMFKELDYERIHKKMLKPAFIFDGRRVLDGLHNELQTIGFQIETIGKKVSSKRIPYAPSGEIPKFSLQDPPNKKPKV
UniProt O75182: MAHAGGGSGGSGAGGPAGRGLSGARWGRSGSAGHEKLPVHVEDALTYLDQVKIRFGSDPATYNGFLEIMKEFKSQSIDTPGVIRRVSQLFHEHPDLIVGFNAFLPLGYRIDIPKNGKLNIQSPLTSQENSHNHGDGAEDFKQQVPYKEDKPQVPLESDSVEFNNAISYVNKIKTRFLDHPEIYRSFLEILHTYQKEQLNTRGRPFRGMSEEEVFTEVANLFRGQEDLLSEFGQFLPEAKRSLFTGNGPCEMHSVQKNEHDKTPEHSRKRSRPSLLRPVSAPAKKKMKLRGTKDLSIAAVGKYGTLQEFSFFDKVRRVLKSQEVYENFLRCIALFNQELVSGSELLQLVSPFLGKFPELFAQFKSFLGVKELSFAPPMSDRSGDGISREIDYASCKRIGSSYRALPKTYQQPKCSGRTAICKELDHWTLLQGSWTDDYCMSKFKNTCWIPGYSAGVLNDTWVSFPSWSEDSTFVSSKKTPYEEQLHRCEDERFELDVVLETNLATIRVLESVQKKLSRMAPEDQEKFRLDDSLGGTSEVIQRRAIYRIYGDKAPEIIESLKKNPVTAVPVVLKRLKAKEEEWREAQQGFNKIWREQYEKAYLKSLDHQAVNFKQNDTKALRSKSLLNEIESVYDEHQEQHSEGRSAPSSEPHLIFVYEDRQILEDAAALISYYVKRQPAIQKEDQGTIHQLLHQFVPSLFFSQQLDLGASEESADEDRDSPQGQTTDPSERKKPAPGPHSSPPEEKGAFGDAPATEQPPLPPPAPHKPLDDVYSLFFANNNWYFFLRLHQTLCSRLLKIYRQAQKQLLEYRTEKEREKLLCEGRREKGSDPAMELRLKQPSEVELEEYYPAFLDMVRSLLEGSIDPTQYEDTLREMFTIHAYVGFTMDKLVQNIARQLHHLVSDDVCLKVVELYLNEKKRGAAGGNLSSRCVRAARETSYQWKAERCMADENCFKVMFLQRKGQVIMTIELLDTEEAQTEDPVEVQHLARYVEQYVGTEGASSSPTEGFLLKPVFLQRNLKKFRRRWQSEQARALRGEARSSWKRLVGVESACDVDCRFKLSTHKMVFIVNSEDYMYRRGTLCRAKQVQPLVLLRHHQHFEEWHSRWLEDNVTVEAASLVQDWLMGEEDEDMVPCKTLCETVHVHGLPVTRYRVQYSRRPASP
UniProt O14907: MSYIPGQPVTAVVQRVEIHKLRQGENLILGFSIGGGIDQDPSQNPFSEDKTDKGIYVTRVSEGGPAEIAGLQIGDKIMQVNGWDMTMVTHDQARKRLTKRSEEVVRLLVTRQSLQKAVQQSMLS

Compound: Nc1nc2c(ncn2[C@@H]2O[C@H](COP(=O)(O)OP(=O)(O)OP(=O)(O)O)[C@@H](O)[C@H]2O)c(=O)[nH]1 [guanosine triphosphate]
Assay: NP40-soluble protein abundance relative to vehicle (solubility fold change) (ratio); higher = more soluble protein in presence of GTP
Outline: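 Jurkat crude lysate (Dounce-homogenised) was treated with eight concentrations from 0.1 to 10 mM for 10 min at room temperature, then 3 min at 37 °C. It was solubilised with 0.8% NP40 and benzonase (60 min, 4 °C) and ultracentrifuged, and the supernatant was TMT-labelled for LC-MS/MS. Intensities were vsn-normalised, and the value is the fold change against the NP40-processed vehicle per replicate, from three independent experiments.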

Target	NP40-soluble protein abundance (concentration: 0.1mM)	NP40-soluble protein abundance (concentration: 0.5mM)	NP40-soluble protein abundance (concentration: 1mM)	NP40-soluble protein abundance (concentration: 2mM)	NP40-soluble protein abundance (concentration: 4mM)	NP40-soluble protein abundance (concentration: 6mM)	NP40-soluble protein abundance (concentration: 8mM)	NP40-soluble protein abundance (concentration: 10mM)
UniProt O43291	1.02 ± 0.092	0.889 ± 0.082	0.934 ± 0.08	0.944 ± 0.19	0.902 ± 0.12	0.924 ± 0.018	0.89 ± 0.01	0.94 ± 0.017
UniProt O60828 and related entries	0.966 ± 0.1	0.993 ± 0.11	1.06 ± 0.11	1.02 ± 0.15	1.03 ± 0.13	1.1 ± 0.099	1.12 ± 0.057	1.16 ± 0.1
KIF3B (UniProt O15066)	1.07 ± 0.033	1.02 ± 0.032	1.08 ± 0.045	0.996 ± 0.082	1.04 ± 0.067	1.01 ± 0.025	1.06 ± 0.081	1.05 ± 0.078
PRMT5 (UniProt O14744)	1.06 ± 0.077	1.11 ± 0.12	1.04 ± 0.095	1.08 ± 0.16	1.1 ± 0.15	1.08 ± 0.16	1.06 ± 0.1	1.01 ± 0.11
RRP9 (UniProt O43818)	0.993 ± 0.094	1.05 ± 0.11	0.977 ± 0.11	1.03 ± 0.092	1 ± 0.12	1.1 ± 0.09	1.07 ± 0.12	1.13 ± 0.12
PFDN6 (UniProt O15212)	0.904 ± 0.071	0.919 ± 0.033	0.951 ± 0.039	0.903 ± 0.046	0.889 ± 0.039	0.933 ± 0.033	0.911 ± 0.084	0.911 ± 0.029
M0R2S1 and related entries (UniProt P62987)	0.88 ± 0.084	0.895 ± 0.11	1.01 ± 0.17	0.915 ± 0.11	0.89 ± 0.089	0.886 ± 0.068	0.867 ± 0.12	0.941 ± 0.11
MAFK (UniProt O60675)	0.715 ± 0.09	0.828 ± 0.1	0.792 ± 0.086	0.885 ± 0.11	0.781 ± 0.058	0.882 ± 0.093	0.806 ± 0.028	1.05 ± 0.067
HGS (UniProt O14964)	0.95 ± 0.063	0.937 ± 0.071	0.918 ± 0.064	0.869 ± 0.071	0.865 ± 0.05	0.863 ± 0.072	0.877 ± 0.073	0.863 ± 0.065
UniProt O00567	1.05 ± 0.035	1.03 ± 0.046	1.1 ± 0.087	1.23 ± 0.075	1.55 ± 0.12	1.75 ± 0.12	2.06 ± 0.14	2.48 ± 0.13
M0R2A0 and related entries (UniProt Q5UCC4)	0.98 ± 0.025	1.03 ± 0.068	0.991 ± 0.083	1.03 ± 0.038	0.94 ± 0.054	1.01 ± 0.1	0.953 ± 0.055	1 ± 0.088
RNF113A (UniProt O15541)	0.967 ± 0.028	1 ± 0.051	0.998 ± 0.029	0.947 ± 0.072	0.928 ± 0.07	0.92 ± 0.066	0.899 ± 0.023	0.941 ± 0.077
M0R0Z3 and related entries (UniProt P35269)	0.971 ± 0.054	0.973 ± 0.062	0.99 ± 0.057	0.946 ± 0.081	0.941 ± 0.073	0.949 ± 0.052	0.992 ± 0.022	0.965 ± 0.05
GTPBP1 (UniProt O00178)	1 ± 0.052	1.01 ± 0.041	0.963 ± 0.052	0.963 ± 0.039	0.966 ± 0.051	0.979 ± 0.036	1 ± 0.079	0.976 ± 0.045
UniProt O00429 and related entries	1.03 ± 0.021	0.989 ± 0.02	0.963 ± 0.023	0.951 ± 0.027	0.934 ± 0.058	0.928 ± 0.029	0.912 ± 0.039	0.904 ± 0.054
UniProt O43310	0.958 ± 0.092	1.03 ± 0.1	1.02 ± 0.25	1.03 ± 0.18	0.998 ± 0.14	0.988 ± 0.17	1 ± 0.14	1.02 ± 0.11
BCAT2 (UniProt O15382)	1.01 ± 0.052	1.06 ± 0.039	0.934 ± 0.027	0.969 ± 0.047	0.908 ± 0.049	0.921 ± 0.03	0.871 ± 0.018	0.857 ± 0.077
CASC3 (UniProt O15234)	0.983 ± 0.01	0.981 ± 0.029	1.05 ± 0.051	1 ± 0.076	0.971 ± 0.056	0.987 ± 0.064	1.02 ± 0.047	0.963 ± 0.071
UniProt O60506 and related entries	0.955 ± 0.027	1.01 ± 0.027	0.971 ± 0.03	0.999 ± 0.05	1 ± 0.082	1.02 ± 0.066	1.03 ± 0.091	1.01 ± 0.067
AIP (UniProt O00170)	0.889 ± 0.056	0.885 ± 0.068	0.929 ± 0.081	0.888 ± 0.075	0.877 ± 0.068	0.878 ± 0.065	0.854 ± 0.083	0.87 ± 0.073
UniProt O00291 and related entries	1.04 ± 0.045	1.01 ± 0.072	1.06 ± 0.068	1.06 ± 0.12	1.08 ± 0.093	1.09 ± 0.04	1.11 ± 0.11	1.13 ± 0.13
GAK (UniProt O14976)	0.991 ± 0.057	1.01 ± 0.049	0.966 ± 0.028	0.991 ± 0.075	1 ± 0.066	0.986 ± 0.056	0.957 ± 0.06	1.01 ± 0.092
WASL (UniProt O00401)	0.927 ± 0.14	0.981 ± 0.15	0.943 ± 0.14	0.981 ± 0.17	0.921 ± 0.17	0.976 ± 0.15	0.906 ± 0.16	1.05 ± 0.16
UniProt O43237 and related entries	0.9716 ± 0.0075	1.03 ± 0.021	1.01 ± 0.028	1.09 ± 0.073	1.07 ± 0.12	1.07 ± 0.085	1.11 ± 0.14	1.15 ± 0.14
UniProt O00487	0.992 ± 0.049	1.03 ± 0.098	0.974 ± 0.12	1.01 ± 0.15	1.01 ± 0.12	1.04 ± 0.16	1 ± 0.13	0.955 ± 0.14
M0QZ12 and related entries (UniProt Q96CP6)	0.974 ± 0.057	1.02 ± 0.019	0.979 ± 0.016	1.03 ± 0.023	1.05 ± 0.011	1.02 ± 0.076	0.991 ± 0.035	1.01 ± 0.042
NDUFB3 (UniProt O43676)	0.983 ± 0.023	1.03 ± 0.039	1.02 ± 0.03	0.998 ± 0.09	1.01 ± 0.038	1.03 ± 0.068	1.04 ± 0.12	1.04 ± 0.12
UGDH (UniProt O60701)	0.967 ± 0.063	0.994 ± 0.059	0.932 ± 0.047	0.939 ± 0.036	0.929 ± 0.035	0.938 ± 0.044	0.911 ± 0.055	0.936 ± 0.062
M0QYC5 and related entries (UniProt O75182)	1.24 ± 0.14	1.22 ± 0.16	1.17 ± 0.12	1.28 ± 0.11	1.2 ± 0.059	1.21 ± 0.036	1.18 ± 0.076	1.16 ± 0.12
TAX1BP3 (UniProt O14907)	1.05 ± 0.15	0.993 ± 0.053	1.07 ± 0.11	1.02 ± 0.07	0.962 ± 0.015	1.03 ± 0.1	0.994 ± 0.074	0.996 ± 0.05

Some of the entries above in a different format.
Target | NP40-soluble protein abundance (concentration: 0.1mM) | NP40-soluble protein abundance (concentration: 0.5mM) | NP40-soluble protein abundance (concentration: 1mM) | NP40-soluble protein abundance (concentration: 2mM) | NP40-soluble protein abundance (concentration: 4mM) | NP40-soluble protein abundance (concentration: 6mM) | NP40-soluble protein abundance (concentration: 8mM) | NP40-soluble protein abundance (concentration: 10mM)
GTPBP1 (UniProt O00178) | 1 ± 0.052 | 1.01 ± 0.041 | 0.963 ± 0.052 | 0.963 ± 0.039 | 0.966 ± 0.051 | 0.979 ± 0.036 | 1 ± 0.079 | 0.976 ± 0.045
UniProt O00429 and related entries | 1.03 ± 0.021 | 0.989 ± 0.02 | 0.963 ± 0.023 | 0.951 ± 0.027 | 0.934 ± 0.058 | 0.928 ± 0.029 | 0.912 ± 0.039 | 0.904 ± 0.054
UniProt O43310 | 0.958 ± 0.092 | 1.03 ± 0.1 | 1.02 ± 0.25 | 1.03 ± 0.18 | 0.998 ± 0.14 | 0.988 ± 0.17 | 1 ± 0.14 | 1.02 ± 0.11
BCAT2 (UniProt O15382) | 1.01 ± 0.052 | 1.06 ± 0.039 | 0.934 ± 0.027 | 0.969 ± 0.047 | 0.908 ± 0.049 | 0.921 ± 0.03 | 0.871 ± 0.018 | 0.857 ± 0.077
CASC3 (UniProt O15234) | 0.983 ± 0.01 | 0.981 ± 0.029 | 1.05 ± 0.051 | 1 ± 0.076 | 0.971 ± 0.056 | 0.987 ± 0.064 | 1.02 ± 0.047 | 0.963 ± 0.071
UniProt O60506 and related entries | 0.955 ± 0.027 | 1.01 ± 0.027 | 0.971 ± 0.03 | 0.999 ± 0.05 | 1 ± 0.082 | 1.02 ± 0.066 | 1.03 ± 0.091 | 1.01 ± 0.067
AIP (UniProt O00170) | 0.889 ± 0.056 | 0.885 ± 0.068 | 0.929 ± 0.081 | 0.888 ± 0.075 | 0.877 ± 0.068 | 0.878 ± 0.065 | 0.854 ± 0.083 | 0.87 ± 0.073
UniProt O00291 and related entries | 1.04 ± 0.045 | 1.01 ± 0.072 | 1.06 ± 0.068 | 1.06 ± 0.12 | 1.08 ± 0.093 | 1.09 ± 0.04 | 1.11 ± 0.11 | 1.13 ± 0.13
